No constants are given. Whether binding was seen depends on the method and setting. For some of these results: Binding seen in cells or lysates may run through a third protein. Some results given as binding are weak or reduced against the parent protein; the word gives no strength. Tags and fused reporters may be left off the sequences shown. Each block holds one binder with its values, some of them ahead of it.
Assays:
[1] = target: T1, FLAG-hRTP801 (human), Q9NX09; assay: co-IP with anti-FLAG resin (FIG. 21); conditions: remark: other sources report otherwise
T1 chain: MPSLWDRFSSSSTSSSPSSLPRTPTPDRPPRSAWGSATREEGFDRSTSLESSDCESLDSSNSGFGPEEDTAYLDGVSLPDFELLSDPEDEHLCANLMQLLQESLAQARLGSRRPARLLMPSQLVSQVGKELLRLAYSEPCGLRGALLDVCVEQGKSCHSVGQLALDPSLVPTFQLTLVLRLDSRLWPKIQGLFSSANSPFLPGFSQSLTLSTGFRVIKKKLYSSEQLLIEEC

By UniProt entry, the sequences of proteins in these tests, tags left out. Where a name states a change or a piece, a line headed by the entry shows the natural chain unless it says otherwise.
UniProt P49815: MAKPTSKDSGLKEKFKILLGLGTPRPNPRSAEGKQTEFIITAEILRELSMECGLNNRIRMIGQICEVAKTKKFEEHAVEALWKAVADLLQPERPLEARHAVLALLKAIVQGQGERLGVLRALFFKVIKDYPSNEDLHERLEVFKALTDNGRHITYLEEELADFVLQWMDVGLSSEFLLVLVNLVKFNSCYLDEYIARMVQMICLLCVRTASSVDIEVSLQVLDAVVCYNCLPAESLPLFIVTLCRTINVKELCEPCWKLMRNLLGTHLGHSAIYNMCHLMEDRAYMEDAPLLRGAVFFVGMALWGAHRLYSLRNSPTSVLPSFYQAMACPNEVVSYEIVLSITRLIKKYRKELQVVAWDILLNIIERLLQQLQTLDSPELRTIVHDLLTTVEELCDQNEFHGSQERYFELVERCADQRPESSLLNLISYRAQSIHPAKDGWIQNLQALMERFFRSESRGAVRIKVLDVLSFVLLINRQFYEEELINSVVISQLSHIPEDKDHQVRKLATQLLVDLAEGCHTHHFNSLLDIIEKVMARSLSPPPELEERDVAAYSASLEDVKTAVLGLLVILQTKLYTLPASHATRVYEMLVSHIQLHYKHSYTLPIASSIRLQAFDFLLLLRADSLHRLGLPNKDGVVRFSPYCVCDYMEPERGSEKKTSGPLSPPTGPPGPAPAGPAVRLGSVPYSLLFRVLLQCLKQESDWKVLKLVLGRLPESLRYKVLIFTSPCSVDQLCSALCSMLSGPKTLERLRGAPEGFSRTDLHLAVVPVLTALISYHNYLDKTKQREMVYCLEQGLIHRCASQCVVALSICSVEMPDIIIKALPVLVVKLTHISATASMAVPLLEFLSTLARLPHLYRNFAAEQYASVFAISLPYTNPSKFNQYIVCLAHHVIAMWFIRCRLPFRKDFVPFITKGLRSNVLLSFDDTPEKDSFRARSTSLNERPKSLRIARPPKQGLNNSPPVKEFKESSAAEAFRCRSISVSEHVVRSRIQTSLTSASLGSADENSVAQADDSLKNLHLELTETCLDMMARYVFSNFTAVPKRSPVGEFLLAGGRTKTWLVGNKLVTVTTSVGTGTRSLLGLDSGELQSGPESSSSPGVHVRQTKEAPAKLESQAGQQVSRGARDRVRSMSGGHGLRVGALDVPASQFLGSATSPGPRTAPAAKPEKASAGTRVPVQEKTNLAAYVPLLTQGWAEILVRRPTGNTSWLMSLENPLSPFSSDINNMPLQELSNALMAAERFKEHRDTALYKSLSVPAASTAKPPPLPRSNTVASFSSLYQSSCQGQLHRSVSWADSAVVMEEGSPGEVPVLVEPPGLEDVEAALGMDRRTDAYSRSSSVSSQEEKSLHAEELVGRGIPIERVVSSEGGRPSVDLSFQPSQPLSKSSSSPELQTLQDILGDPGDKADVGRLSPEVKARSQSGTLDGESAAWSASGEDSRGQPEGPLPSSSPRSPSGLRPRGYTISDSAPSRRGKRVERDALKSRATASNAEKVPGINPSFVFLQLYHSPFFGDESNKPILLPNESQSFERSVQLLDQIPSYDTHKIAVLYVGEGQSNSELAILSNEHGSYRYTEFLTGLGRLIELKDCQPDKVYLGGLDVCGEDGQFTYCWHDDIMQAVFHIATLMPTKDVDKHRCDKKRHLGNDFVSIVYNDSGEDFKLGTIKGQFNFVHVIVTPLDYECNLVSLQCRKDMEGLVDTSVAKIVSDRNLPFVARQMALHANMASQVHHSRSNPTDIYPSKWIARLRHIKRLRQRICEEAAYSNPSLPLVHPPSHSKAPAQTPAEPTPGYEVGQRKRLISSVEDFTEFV

[2] = target: T1, FLAG-hRTP801 (human), Q9NX09; assay: HTRF on 293T HEK cytosolic extracts (FIG. 23); conditions: remark: other sources report otherwise
[3] = target: T1, FLAG-hRTP801 (human), Q9NX09; assay: co-IP with M2 anti-FLAG resin from 293T HEK extracts, immunoblot (FIG. 21); conditions: remark: other sources report otherwise
TSC2 [4] = target: T2, TSC2 (human, UniProt P49815 1-1807, limits assumed); assay: in vitro pull-down from extract (FIG. 13)
T2 construct: Untagged TSC2 in 293T cell extracts, endogenous or from a transfected TSC2 cDNA; Some extracts of the pull-downs may hold HA-TSC2; also called tuberin; endogenous TSC2

TSC2 [5] = target: T2, TSC2; assay: in vitro pull-down (summary of Example 4)

binding [1]: binds | binding [2]: binds | binding [3]: binds
B1: HA-SV5-full length hRTP801, Q9NX09 1-232 (protein, not shown: small tags and cut ends)
chain: T1 chain

binding (TSC2 [4]): binds | binding (TSC2 [5]): binds
B2: 6× His-hRTP801 (protein, not shown: small tags and cut ends)
chain: T1 chain

binding (TSC2 [4]): binds | binding (TSC2 [5]): binds
B3: 6× His-hRTP801 C-fragment (protein, not shown: small tags and cut ends)
chain: DEHLCANLMQLLQESLAQARLGSRRPARLLMPSQLVSQVGKELLRLAYSEPCGLRGALLDVCVEQGKSCHSVGQLALDPSLVPTFQLTLVLRLDSRLWPKIQGLFSSANSPFLPGFSQSLTLSTGFRVIKKKLYSSEQLLIEEC
